The other results are listed elsewhere or left out. Shown are side measurements of this screen, not its main read-out; they come without a call. Most of these compounds were active or inconclusive in the main read-out, so they are no random draw. Words in brackets tell the shape of the fitted curve; partial curves, single points and poor fits give uncertain potencies.
Experiment: qHTS Assay for Lipid Storage Modulators in Drosophila S3 Cells;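 on cell number change: cells counted by Cell Tracker Red CMTPX staining in the red channel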
Details: BODIPY lipid droplet fluorescence, 18-24 h; for cell number change: measured here: cell count max response, cells fed with added oleic acid
Method in brief: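 Drosophila S3 cells loaded with oleic acid (400 uM, as added) and compounds at several concentrations; lipid droplets imaged by 488-nm laser-scanning cytometry, 500–530 nm intensity and object ratio to cell channel. Percent activity normalized to 20 uM Triacsin C.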

[1] = measured here: lipid fluorescence (Fed channel) AC50, cells fed with added oleic acid
[2] = measured here: cell number channel AC50, cells fed with added oleic acid

| Compound | cell number change [%] | AC50 [1] | AC50 [2] |
| --- | --- | --- | --- |
| COc1cccc2c1Oc1ncccc1N(C(=O)CCC(=O)NCc1ccccc1F)C2 | -7.79 | 29.1 µM [rising, single point] |  |
| c1ccc(Nc2c(-c3ccco3)nc3ccccn23)cc1 | -30 |  | 4.61 µM [rising, single point] |
| CC(CC(=O)N1CCc2ccccc21)n1cccn1 (centres undefined) |  | 6.51 µM [falling, single point] |  |
| O=C(CC1SC(=Nc2ccccc2F)N(CCN2CCOCC2)C1=O)Nc1ccc(F)cc1F (centres undefined) | 7.62 |  |  |
| Cc1cccc(C)c1NC(=O)C1(NC(=O)c2cnccn2)CCCCC1 |  |  | 0.0731 µM [falling, partial curve, poor fit] |
| C=CCn1c(SCC(=O)c2cc(C)n(C)c2C)nnc1-c1ccncc1 |  | 1.3 µM [rising, partial curve, poor fit] | 2.31 µM [rising, single point] |
| Cc1ccccc1C(=O)N1CCN(c2ccc(NC(=O)Cc3ccccc3)cc2)CC1 | 15.6 | 3.66 µM [rising, full curve] |  |
| O=C1NCCCC1C(=O)N1CCCCC1 (centres undefined) | 9.45 |  |  |
| NC(=O)CCN(C(=O)c1cccc(S(=O)(=O)N2CCc3ccccc32)c1)c1ccccc1 | -7.15 | 6.51 µM [falling, partial curve] |  |
| CN(C(=O)c1ccc(NC(=O)Cc2cccc(NC(=O)C3CCN(C(=O)CCc4ccccc4)CC3)c2)cc1)C1CCCC1 | -8.06 | 9.2 µM [falling, partial curve] |  |
| COc1ccc2[nH]c3nc(SCc4nnc(-c5ccccc5)o4)nnc3c2c1 | -68.2 | 29.1 µM [falling, single point] | 18.4 µM [falling, single point] |
| Nc1cccc(C(=O)NCCNC(=O)c2cccc(N)c2)c1 | -2.78 | 29.1 µM [falling, partial curve, poor fit] |  |
| O=C(O)c1ccc(C(=O)Nc2cccc3ccccc23)c(C(=O)O)c1 | -34.9 |  | 20.6 µM [falling, partial curve, poor fit] |
| CCC1(CC)Cc2ccccc2C2=C(C(=O)N3CCCCC3)C(=O)C(=O)N21 | 14.6 | 6.51 µM [falling, single point] |  |
| COC(=O)c1ccc(NC(=O)c2cccc(NC(=O)c3ccco3)c2)cc1 | 5.56 | 18.4 µM [falling, single point] |  |
| CN(CCOc1ccccc1Cl)Cc1ccccc1 |  | 20.6 µM [falling, partial curve] |  |
| O=C(CCCc1c[nH]c2ccccc12)Nc1ncccc1O | 19.8 | 29.1 µM [rising, single point] |  |
| CC(C)(C)C1CCC(C(=O)OCC(=O)c2ccc[nH]2)CC1 (centres undefined) | -52.4 |  | 20.6 µM [falling, partial curve] |
| CCN(CC)c1ccc(S(=O)(=O)N2CCOCC2)cc1NC(=O)CSc1ccccc1 | -50 |  | 29.1 µM [falling, single point] |
| COc1ccc(/C=C(/C#N)C(=O)Nc2cccc([N+](=O)[O-])c2)cc1C(=O)O | 11.1 | 29.1 µM [rising, single point] |  |

| Compound | cell number change [%] | AC50 [1] | AC50 [2] |
| --- | --- | --- | --- |
| CC(C)(Oc1cccc2ccccc12)C(=O)O | 4.33 | 0.082 µM [falling, full curve, poor fit] |  |
| Cc1csc2c(N3CCN(C(=S)Nc4ccc(C(F)(F)F)cc4)CC3)ncnc12 | 21.6 |  |  |
| O=S(=O)(/N=C(\Sc1ccc(Cl)cc1)c1ccccc1)c1ccccc1 | -15.9 |  |  |
| COc1cc(S(=O)(=O)NCc2cccnc2)c(OC)cc1Br | 13.1 | 2.06 µM [rising, partial curve, poor fit] |  |
| CCCn1c(Cc2ccccc2)n[nH]c1=S | 5.89 | 1.46 µM [rising, partial curve] |  |
| CCc1ccccc1NC(=O)Cc1ccc(-n2cccc2)cc1 | 33.2 |  | 29.1 µM [rising, single point] |
| O=C(NCC1CCCO1)c1ccc(COc2ccccc2)o1 (centres undefined) | -75 |  | 14.6 µM [falling, partial curve] |
| COC(=O)CC1COc2ccccc2N1C(=O)/C=C/c1ccccc1 (centres undefined) | 18.6 | 5.8 µM [rising, partial curve] |  |
| COC(=O)c1sc2nc(C)c([N+](=O)[O-])c(C)c2c1N | 88.4 |  | 29.1 µM [rising, single point] |
| N#Cc1ccccc1OCC(=O)N(Cc1nnc(-c2ccccc2Cl)o1)C1CC1 | 1.35 |  | 2.31 µM [rising, partial curve] |
| Cc1ccc(C(=O)N2NC(c3ccc(F)cc3)C3C(=O)N(c4ccc(C)c(C)c4)C(=O)C32)cc1 (centres undefined) | 2.26 | 1.64 µM [falling, partial curve] |  |
| Cc1cccc(NC(=O)Nc2ccccc2[N+](=O)[O-])n1 | -13.9 | 0.58 µM [falling, single point] |  |
| COc1ccc2[nH]c3c(=O)n(CCCC(=O)NC4CCCCC4C)c(=S)[nH]c3c2c1 (centres undefined) | -7.67 | 11.6 µM [falling, single point] |  |
| COc1ccccc1C(=O)OCC(=O)NC12CC3CC(CC(C3)C1)C2 | -86.1 | 23.1 µM [falling, partial curve] | 20.6 µM [falling, partial curve] |
| Cc1occc1-c1nnc(SCC(=O)c2c(N)n(Cc3ccccc3)c(=O)n(C)c2=O)n1C | 11.6 | 0.58 µM [rising, partial curve] | 0.82 µM [rising, full curve] |
| O=C(Cn1ccc2ccccc2c1=O)N1CCN(c2cccc(Cl)c2)CC1 | 10.1 |  | 0.0411 µM [rising, partial curve, poor fit] |
| CC(=O)NC(CCS(C)(=O)=O)C(=O)Nc1cccc2ccccc12 (centres undefined) | 13 | 0.731 µM [falling, full curve] |  |
| Cc1ccc(NC(=O)CC2=NC(=O)C(CC(=O)Nc3ccccc3F)S2)cc1 (centres undefined) | -50.3 |  | 32.6 µM [falling, single point] |
| CCn1c(=O)n(CC)c2cc(N3CCCC3)c(NC(=O)c3cccc(Cl)c3)cc21 | 5.97 | 11.6 µM [falling, partial curve] |  |

In the list so far, these contain a furan ring, fused or not.

| Compound | cell number change [%] | AC50 [1] | AC50 [2] |
| --- | --- | --- | --- |
| c1ccc(Nc2c(-c3ccco3)nc3ccccn23)cc1 | -30 |  | 4.61 µM [rising, single point] |
| COC(=O)c1ccc(NC(=O)c2cccc(NC(=O)c3ccco3)c2)cc1 | 5.56 | 18.4 µM [falling, single point] |  |
| O=C(NCC1CCCO1)c1ccc(COc2ccccc2)o1 (centres undefined) | -75 |  | 14.6 µM [falling, partial curve] |
| Cc1occc1-c1nnc(SCC(=O)c2c(N)n(Cc3ccccc3)c(=O)n(C)c2=O)n1C | 11.6 | 0.58 µM [rising, partial curve] | 0.82 µM [rising, full curve] |

Reference: PubChem BioAssay AID2685 (National Center for Advancing Translational Sciences (NCATS), 2010)
